The list is a part of this screen's results and no random one: it gathers tests that were run many times, whatever their T/C, doses with no T/C, and many T/C values between a quarter and a half above the control. Further doses and runs are listed elsewhere. T/C: endpoint of the treated group in % of that of the vehicle group. Some entries give survivors of the animals treated and no T/C: the source holds a T/C of zero for them, seemingly a mark for toxic or unscored doses. Some survivor counts are full or nearly so, which does not show that the dose was tolerated: the source hardly ever lists a survival T/C far under the control, and the zero likely stands for such cases as well. Counts of survivors are from the toxicity check (mostly the fifth day) where no day follows; animals may have died later. Schedules are NCI's codes, taken here to give the interval after Q, in days (D) or hours (H), and the number of doses after X. Some entries were tested several times; their values stand side by side, smallest first.
Test system: L1210 leukemia ip in BDF1 mice, survival T/C
Assay: NCI In Vivo Anticancer Drug Screen. Data for tumor model L1210 Leukemia (intraperitoneal) in B6D2F1 (BDF1) mice
Conditions: T/C endpoint: mean survival time, higher T/C = longer survival

For c1ccc(-c2cc(-c3ccccc3)[o+]c(-c3ccccc3)c2)cc1, the survivor count (dose: 25.0 mg/kg/injection, schedule: Q04DX003 (ip), vehicle: saline with Tween-80) was 6 of 6, the survivor count (dose: 50.0 mg/kg/injection, schedule: Q04DX003 (ip), vehicle: saline with Tween-80) was 6 of 6 and the survivor count (dose: 100.0 mg/kg/injection, schedule: Q04DX003 (ip), vehicle: saline with Tween-80) was 5 of 6.

With O=[N+]([O-])c1ccc(C2=CSC3=NCCN23)cc1 the survivor count (dose: 80.0 mg/kg/injection, schedule: Q01DX001 (ip), vehicle: saline) was 1 of 4, the survivor count (dose: 100.0 mg/kg/injection, schedule: Q01DX001 (ip), vehicle: saline) was 0 of 6 and the survivor count (dose: 100.0 mg/kg/injection, schedule: Q01DX009 (ip), vehicle: saline) was 3 of 6 and 2 of 3. The survivor count (dose: 200.0 mg/kg/injection, schedule: Q01DX001 (ip), vehicle: saline) was 0 of 6, the survivor count (dose: 200.0 mg/kg/injection, schedule: Q01DX009 (ip), vehicle: saline) was 0 of 6 and the survivor count (dose: 400.0 mg/kg/injection, schedule: Q01DX001 (ip), vehicle: saline) was 0 of 6. The survivor count (dose: 400.0 mg/kg/injection, schedule: Q01DX009 (ip), vehicle: saline) was 0 of 6.

In the case of O=S(O)O, the survivor count (dose: 800.0 mg/kg/injection, schedule: Q01DX001 (ip), vehicle: saline) is reported as 0 of 6 and the survivor count (dose: 800.0 mg/kg/injection, schedule: Q01DX009 (ip), vehicle: saline) is reported as 0 of 6.

In the case of Nc1ccccc1SC1CC(=O)N(c2cccc3ccccc23)C1=O (stereo not given), the survivor count (dose: 200.0 mg/kg/injection, schedule: Q04DX003 (ip), vehicle: Klucel (hydroxypropylcellulose) (HPC)) is reported as 5 of 6.

For CCOC(=O)CSc1ccc2c3c(cccc13)C(=O)OC2=O, the survivor count (dose: 175.0 mg/kg/injection, schedule: Q01DX009 (ip), vehicle: other) was 3 of 6 and the survivor count (dose: 350.0 mg/kg/injection, schedule: Q01DX009 (ip), vehicle: other) was 2 of 6.

Source: PubChem BioAssay AID248 (DTP/NCI, 2004)
